# Results of single-concentration screens

Chains of the proteins cited; added tags and fusions are not shown.
UniProt P9WNZ1, whole entry: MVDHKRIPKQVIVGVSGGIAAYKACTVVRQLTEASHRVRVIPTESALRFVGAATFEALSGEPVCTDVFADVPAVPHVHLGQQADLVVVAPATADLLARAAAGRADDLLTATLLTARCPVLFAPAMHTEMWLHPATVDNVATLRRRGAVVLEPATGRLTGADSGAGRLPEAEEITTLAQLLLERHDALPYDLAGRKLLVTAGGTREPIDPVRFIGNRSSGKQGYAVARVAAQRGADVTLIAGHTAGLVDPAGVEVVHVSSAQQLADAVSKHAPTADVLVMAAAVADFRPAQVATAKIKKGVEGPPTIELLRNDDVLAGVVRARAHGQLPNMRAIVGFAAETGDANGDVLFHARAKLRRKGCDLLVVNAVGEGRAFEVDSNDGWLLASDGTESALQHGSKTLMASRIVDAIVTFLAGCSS

A: 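Assay of Toxoplasma gondii numbers, read through their beta-galactosidase reporter with a colour substrate. Compounds at 10 µM. The record gives no direction; the compounds picked for IC50 retests had high values, so higher reads as fewer parasites. About 67,000 compounds were tested under these conditions; 0.38% (about 260) showed 50% or more at least once.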
B: 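Coenzyme A biosynthesis protein CoaBC, Mycobacterium tuberculosis (UniProt P9WNZ1). Enzyme assay of CoaBC with a phosphate dye (Biomol Green) read at 650 nm. Compounds at 30 µM. Higher reads as stronger inhibition, judged from the few compounds that gave an IC50. Most strong results did not repeat in a second test. Size under these conditions: about 67,000 compounds, about 40 of them at 50% or above in at least one test.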

Values are the deposited “Percent Effect”, in %. The controls that fix the scale are not given in the record; negative values are as filed. The compounds are a random part of those screened. A dash means the value is not listed here; it may have been measured.

structure,A,B
COc1ccccc1CN(C)C(=O)c1cc(CN2CCC(O)CC2)on1,4.05%,8.316%
[H][C@@]12C[C@H](NC(=O)COC)CN1[C@H](CCC(=O)NC1CC1)CNC2=O,-6.873%,-
COCC1CN(C(=O)Cc2ccccn2)Cc2cn(CC3CC3)nc21 (stereo not given),5.648%,-1.261%
Cc1cc(CN2C[C@H]3CCC[C@@]3(COCC3CCOCC3)C2)no1,-,-4.863%
CCC1=NOC(CNCc2cnc(-c3ccccc3C)s2)C1 (stereo not given),-1.849%,4.497%
Cc1nc(CN(C)C2CCCN(c3cccnn3)C2)no1 (stereo not given),-0.3176%,-0.9639%
CC(C)(C)c1cn(C2CCN(C3CCSC3)CC2)nn1 (stereo not given),-6.43%,4.854%
CNC(=O)[C@H]1C[C@@H]2CN(Cc3c(C)noc3C)C[C@@H]2N1C(C)=O,-,0.2463%
Cc1cccn2c(CNC(C)CO)cnc12 (stereo not given),-3.106%,2.539%
CC(C)(C)OC(=O)N1CC(=O)N(Cc2ccco2)CC(O)C1 (stereo not given),24.1%,0.7264%
CC(C)N1CCC2(CC1)CC(NCc1ccccn1)c1ccccc1O2 (stereo not given),-,0.5013%
CC(C)(C)c1cc(C(=O)N2CCC(c3cnccn3)CC2)[nH]n1,21.15%,3.11%
CCCc1noc(C2CCN(C(=O)CCn3nc(C)cc3C)CC2)n1,7.879%,-3.002%
[H][C@@]12CN(C(=O)c3ccoc3C)C[C@]1([H])C(=O)N(Cc1csc(C)n1)C2,-9.154%,-
CC(=O)N[C@H]1CCN(C(=O)c2cc(Cn3cnc4ccccc43)[nH]n2)C1,2.483%,-0.1227%
COCCN1CC2(CCCN(C(=O)NCc3ccccc3)C2)CCC1=O (stereo not given),2.857%,-1.711%
Cc1nc(CN2CCOCC3(CCCN(c4cnccn4)C3)C2)cs1 (stereo not given),-,4.886%
Cc1nnc(N2CCC(CCN(C)C)CC2)c(C#N)c1C,2.085%,-18.79%
[H][C@]12CCN(C(=O)NC)CC[C@@]1([H])S(=O)(=O)N(Cc1ccccc1)C2,9.268%,-
Fc1cnc(N2CCCC3(CN(Cc4ccccc4)CCO3)C2)nc1.O=C(O)C(F)(F)F (stereo not given),-8.308%,-
Cc1cccc(CN2C(=O)CCC23CCNCC3)n1.O=C(O)C(F)(F)F.O=C(O)C(F)(F)F,-13.61%,-
CCOc1ncccc1C(=O)N1CC=C(c2ccc(O)cc2)CC1,-21.83%,12.09%
Cc1nn(C)c(C)c1CC(=O)N1CCc2nnc(N(C)C)cc2C1,-8.059%,2.368%
Cc1nc(-c2ccco2)ccc1C(=O)NCCN1CCN(C)CC1,0.3239%,1.921%
CN(C)CCOCc1nnc2n1CCN(Cc1ccoc1)CC2.O=C(O)C(F)(F)F.O=C(O)C(F)(F)F,-12.3%,-
[H][C@@]12CN(C(=O)c3ccco3)C[C@]1([H])C(=O)N(Cc1cccc(F)c1)C2,-8.529%,-
CCn1cnnc1CCNC(=O)c1ccc(Br)cc1F,2.838%,-0.3686%
CN(CC(F)F)C(=O)c1cn(-c2ccc(Br)cc2)cn1,-12.79%,-1.992%
CSCc1noc(CN2CCCCC2CCc2ccc(O)cc2)n1 (stereo not given),7.993%,4.459%
NC(=O)c1cc(C2CC2)nc2ccc(F)cc12,-4.234%,1.869%
CCN1CC(C(=O)NCCc2csc(-c3ccncc3)n2)CC1=O (stereo not given),1.771%,6.091%
COCCN(C)CCN1CC2(CCN(C3CCCOC3)CC2)OC1=O (stereo not given),-10.39%,5%
O=C(CCSc1ccccc1)NS(=O)(=O)c1ccc2c(c1)OCCO2,-35.69%,-0.2105%
Cc1nc(COC[C@@]23CCC[C@@H]2CN(CC2CCOCC2)C3)cs1,-,3.87%
Cc1cc(F)c(S(=O)(=O)Nc2ccn(CCCC#N)n2)cc1F,6.633%,2.532%
CCc1cnc(CN(C)C2CCN(c3sccc3C#N)C2=O)s1 (stereo not given),2.809%,1.739%
O=C(NCc1cccnc1)C1=NOC2(CCCN(CCO)C2)C1 (stereo not given),1.634%,7.166%
O=C(CN1CCN(C(=O)c2sccc2C2CC2)CC1)NC1CC1,2.485%,5.471%
CCS(=O)(=O)N1CCC(n2nc(-c3cc(C)oc3C)ccc2=O)CC1,-,-6.651%
Cc1ccoc1-c1nnc(CN2CCn3c(nnc3C(C)C)C2)o1,14.13%,4.178%

Data taken from ChEMBL document CHEMBL3988442, “University of Dundee, Small-Polar-MMV Screening Library” (2021).